In the supplement of paper PMC12889115:
This is one part of the list. Values are raw readings; no control value is given beside them.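 First-pass screen: polymyxin B was added at a level that permeabilizes the Salmonella outer membrane while sparing the inner membrane. DMSO wells, with and without polymyxin B, defined maximum growth. Because plates differed from one another, each plate's data were ranked separately and the compounds with the lowest OD600 were carried forward as hits.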

Test system: Salmonella enterica serovar Typhimurium SL1344
Assay: bacterial growth OD600 after 18 h with compound and polymyxin B; higher = more bacterial growth (less inhibition)
Conditions: 50 µM, Mueller-Hinton broth

Compound	bacterial growth OD600 (polymyxin B 1 µg/mL)	bacterial growth OD600 (polymyxin B 0.75 µg/mL)
COc1cc(Cl)ccc1OCc1cc(C(=O)N2CCN(C3CCCCC3)CC2)no1	0.859	
CN1CCCCC1C(=O)NCc1cccnc1-n1cnc2ccccc21 (configuration not stated)	0.887	
COc1ccc(CN2CCN(C3CCCC3)CC2)cc1OCC(O)CN1CCCCC1 (configuration not stated)	1.09	
O=S(=O)(Cc1ccccc1)NCC1CCCN(C2CSCCSC2)C1 (configuration not stated)		0.946
CCS(=O)(=O)c1ncc(CN2CCN(c3cnccn3)CC2)n1Cc1ccccc1	0.856	
Fc1ccccc1Oc1ncccc1CNCc1nc2ccccc2[nH]1		0.775
COc1cccc(CC(C2CCN(C(=O)c3cc(C(C)C)on3)CC2)N(C)C(=O)c2ccn(C)n2)c1 (configuration not stated)		0.798
COc1ccc(-c2noc(-c3ccc(N(C)CC4CCCN4C)nc3)n2)cc1 (configuration not stated)		0.005
CSc1ncc(CN2CCCC(CNC(=O)c3ccc(F)cc3)C2)cn1 (configuration not stated)	0.782	
CCCn1ncc(CN2CCc3[nH]nc(-c4ccc5c(c4)OCO5)c3C2)c1C		0.857
COc1cccc(CCC2CCCN(C(=O)CCN3CCCO3)C2)c1 (configuration not stated)		0.796
COC(=O)[C@@H](NC(=O)c1cc(CCc2ccccc2)no1)c1ccccc1		0.018
COC(c1ccc2c(c1)CN(C(=O)c1cccc(C#CC(C)(C)O)c1)CCO2)C1CCCCC1 (configuration not stated)		-0.002
CCOC(=O)C1(CCc2ccccc2)CCN(C(=O)c2cc[n+]([O-])cc2)CC1		0.79
CCOC(=O)CNC(=O)NCc1cccnc1N1CCCCCCC1	0.706	
COc1cccc(CN(C)C(=O)c2cn(C3CCCCC3)nn2)c1	0.983	

Compound	bacterial growth OD600 (polymyxin B 1 µg/mL)	bacterial growth OD600 (polymyxin B 0.75 µg/mL)
CCCc1ncc(CNCc2cccnc2N(C)C)cn1	0.981	
C/C=C(\C)C(=O)NCC1Cc2cc(-c3ccc(C(C)=O)s3)cc(Cl)c2O1 (configuration not stated)		0.003
CN(CC1CCCN(CCc2ccc(Cl)cc2)C1)C(=O)c1ccncc1 (configuration not stated)	0.891	
CC(=O)NCc1cccnc1Oc1ccc(F)c(F)c1	0.944	
CN(C)c1ncccc1CNS(=O)(=O)N1CCCCC1	0.716	
Fc1cccc(F)c1CCC1CCCN(Cc2ncc[nH]2)C1 (configuration not stated)		0.759
COC(=O)CNC(=O)Cc1c2c(n(CC(C)C)c1C)CC(C)(C)CC2=O	0.762	
CNc1ccc(C(=O)NCCCc2c(C)noc2C)cn1	1.11	
CN(CCc1cn[nH]c1)C(=O)c1ccc(OC2CCN(Cc3ccccn3)CC2)cc1	0.988	
O=C(c1cc(COc2ccc(F)c(F)c2)on1)N(CCO)Cc1ccccc1	0.814	
CC(C)n1cc(CN2CCN(Cc3ccccc3F)C(CCO)C2)cn1 (configuration not stated)	1.02	
CCOC(=O)C1(Cc2ccccc2C(F)(F)F)CCN(C(=O)C2=CCCC2)CC1	0.596	
CO[C@H]1[C@H](NC(=O)Cc2ccccc2)c2ccccc2C12CCN(C(=O)C1=CCCCC1)CC2		0.554
COC(=O)c1ccc(-c2nc(CN3CCCC3c3ccccc3OC)c(C)o2)cc1 (configuration not stated)	0.917	
CCOc1ccc2nc(N3CCCC3C(=O)NCc3ccc4c(c3)OCO4)nc(C)c2c1 (configuration not stated)		0.833
Cc1oc(-c2ccc(NC(=O)Cc3ccccc3)cc2)nc1CNC(=O)CCc1nc2ccccc2[nH]1		0.718

Fetched one by one from the entries so far:
Compound	bacterial growth OD600 (polymyxin B 1 µg/mL)	bacterial growth OD600 (polymyxin B 0.75 µg/mL)
O=C(c1cc(COc2ccc(F)c(F)c2)on1)N(CCO)Cc1ccccc1	0.814	
C/C=C(\C)C(=O)NCC1Cc2cc(-c3ccc(C(C)=O)s3)cc(Cl)c2O1 (configuration not stated)		0.003
